Values of other authors in patent US20090314291A1, “MEDICAMENT DISPENSER” (priority 2005, published 2009).
Some results were stated once for a whole list of compounds, not compound by compound. For at least one compound, name, drawing or mass did not settle the structure.

Test system: PDE4
Settings: competing with binding of 1 mN [3H]R-rolipram (high affinity form) over inhibiting PDE4 catalytic activity (low affinity form), 1 μM [3H]-cAMP substrate

IC50 ratio: IC50 for the PDE4 catalytic form which binds rolipram with a high affinity divided by the IC50 for the form which binds rolipram with a low affinity	SMILES
≥ 0.1	N#CC1(c2ccc(OC(F)F)c(OCC3CC3)c2)CCC(O)CC1 (stereo not drawn) [cis-[4-cyano-4-(3-cyclopropylmethoxy-4-difluoromethoxyphenyl)cyclohexan-1-ol]]
≥ 0.1	COc1ccc([C@]2(C#N)CC[C@@H](C(=O)O)CC2)cc1OC1CCCC1 [cis 4-cyano-4-(3-cyclopentyloxy-4-methoxyphenyl)cyclohexan-1-carboxylic acid]
≥ 0.1	COC(=O)C1CC(C#N)(c2ccc(OC(F)F)c(OCC3CC3)c2)CCC1=O (stereo not drawn) [2-carbomethoxy-4-cyano-4-(3-cyclopropyimethoxy-4-difluoromethoxyphenyl)cyclohexan-1-one]
